# At least one result comes from cells or an extract, where the contact may be indirect.
# Amino acid sequences for entries named in this document (tags omitted). A change or cut given only in a name is not applied to a line headed by its entry.
# UniProt Q01147: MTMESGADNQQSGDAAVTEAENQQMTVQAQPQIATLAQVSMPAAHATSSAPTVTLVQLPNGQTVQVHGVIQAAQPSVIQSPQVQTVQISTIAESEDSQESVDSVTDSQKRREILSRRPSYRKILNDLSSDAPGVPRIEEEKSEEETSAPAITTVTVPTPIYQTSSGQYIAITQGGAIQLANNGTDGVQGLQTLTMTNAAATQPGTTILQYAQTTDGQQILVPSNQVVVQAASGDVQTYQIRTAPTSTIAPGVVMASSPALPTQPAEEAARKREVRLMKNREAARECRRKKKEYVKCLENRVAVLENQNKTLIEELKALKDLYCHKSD
# Biological target: CREB (endogenous, 3T3-L1 fibroblast nuclear extract) (Mus musculus) (UniProt Q01147)
# Assay: EMSA
# Settings: antibody supershift, 5 ug nuclear extract; protein in an extract; label: 32P
row,Sequence,binding result
1,AAAACATGACTCAGAGGAA (double strand) [FABP (aP2/422) promoter putative CRE],binds
2,GGCCCCTTACGTCAGAGGCG (double strand) [PEPCK promoter CRE],binds
3,GCGGGCTGGCGTCACCCGCG (double strand) [CEBP beta promoter putative CRE],binds
4,CAGCCAAGCTGTCAGCCCAT (double strand) [FAS promoter putative CRE],binds
